Strings that start with PEPTIDE1 are HELM notation: dots part the residues, brackets hold end groups and non-standard residues.
test: general procedure: Fmoc solid-phase peptide synthesis; 2-chlorotrityl chloride resin, loading 1.0 mmol/g; DMT/NMM/TosO- with NMM; settings: whole synthesis, HPLC, scale of the general procedure 1.0 mmol (1.0 g resin)

Point of comparison: ^251GFPKGKKGSK^260, “purity (crude or final not stated)” value 93%. Against it:
- ^1211PGIGIGAPGK^1220 — higher, 95%
- ^1661AGQLHTRVSR^1670 — lower, 92%
- ^1311KGMRGEPGFM^1320 — lower, 92%
- ^541KGKKGEPILS^550 — lower, 85%
- ^821GIKGKSGLPG^830 — higher, 99%
- PEPTIDE1{G.P.P.G.S.I.V.K.K.G}$$$$V2.0 — higher, 95%
- PEPTIDE1{L.A.P.G.S.F.K.G.M.K}$$$$V2.0 — lower, 87%
- PEPTIDE1{N.K.E.S.G.F.P.G.L.R}$$$$V2.0 — higher, 95%
- ^891LSGPKGEKGS^900 — lower, 82%
- ^721LPGFPGLPGK^730 — lower, 91%
- ^21AGEKSYGKPC^30 — lower, 88%
- ^81PGLLGPYGPK^90 — lower, 86%
- ^711GFPGPRGEKG^720 — lower, 84%
- ^1521HYARRNDKSY^1530 — lower, 82%
- PEPTIDE1{D.P.G.F.P.G.M.K.G.K}$$$$V2.0 — lower, 92%
- ^1221PGLRGQKGDR^1230 — lower, 80%
- ^1451MRVGYTLVKH^1460 — lower, 80%
- ^841PGKKGTRGKK^850 — lower, 81%
- ^471LKGIKGDSGF^480 — lower, 85%
- ^781PGLKGVHGKP^790 — higher, 97%
- ^671PGFPGPKGSR^680 — lower, 87%
- PEPTIDE1{F.K.G.T.K.G.R.D.G.L}$$$$V2.0 — lower, 92%
- ^1101IGNIGFPGNK^1110 — lower, 80%
- PEPTIDE1{K.G.A.R.G.D.R.G.S.G}$$$$V2.0 — higher, 99%
- PEPTIDE1{G.F.Q.G.E.K.G.V.K.G}$$$$V2.0 — higher, 98%
- ^641PGQQGLPGSK^650 — higher, 99%
- ^41CFPEKGARGR^50 — lower, 80%
- ^311GPPGQQGKKG^320 — lower, 90%

Reference: publication PMC8708666 (International Journal of Molecular Sciences, 2021)
